Data: the supplement of paper PMC7824004
The other results are listed elsewhere or left out. The data scatter; read single values as rough.

What follows are compounds tested on Candida albicans SN425 (assay: biofilm OD600 B-score; higher = more biofilm (less inhibition)). Conditions: 10 µM; assay detail: High-throughput adherence inhibition optical density biofilm assay with C. albicans SN425 in RPMI-1640/MOPS pH 7.0, 384-well plates. ….
Protocol: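 High-throughput adherence inhibition optical density biofilm assay with C. albicans SN425 in RPMI-1640/MOPS pH 7.0, 384-well plates. Compound (10 µM) was present only during the 90 min adherence step, then washed out, and the biofilm grew 24 h without compound. Biofilm was read as OD600 after removing the media. Scores are the difference from the mean in standard deviations and the plate B-score.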

Compound | biofilm OD600 B-score
Cc1cc(C)nc(NC(=O)c2ccc(F)cc2)n1 | 2.22
CC(=O)Nc1ccccc1-c1ccccc1NC(C)=O | -1.46
CCC(C(=O)NCc1ccco1)c1ccccc1 (stereo not drawn) | -1.32
Clc1ccc(OCCN2CCOCC2)cc1 | -0.921
NNc1nc(Nc2ccccc2)nc(N2CCCC2)n1 | -2.36
COc1ccc(Cc2nn[nH]n2)cc1OC | -2.46
COc1ccc(Cl)cc1C(=O)N1CCCCCC1 | 1.93
Cc1ccc(C)n1-c1ccc(-n2cnnn2)cc1 | -2.55
Nn1c(CCC(=O)O)nc2sc3c(c2c1=O)CCCC3 | 0.0183
COc1cc(NC(=O)c2ccccc2)c(Cl)cc1NC(C)=O | 1.08
O=C(Nc1ccc2c(c1)OCCO2)c1ccc(CN2CCOCC2)cc1 | 0.111
O=C(Nc1cccnc1)c1cccc(NC(=O)c2ccco2)c1 | -1.87
Cc1ccccc1NC(=O)c1cc(S(N)(=O)=O)ccc1Cl | -2.24
COc1ccc(N2CCN(C(=O)COCC(=O)O)CC2)cc1 | 0.0198
Cc1cccc(C)c1-n1c(C)n[nH]c1=O | -2.28
CCOc1ccc(C(=O)N2CCN(c3ncccn3)CC2)cc1 | -1.05
COCCNS(=O)(=O)c1cc(C)c(C)cc1OC | 2.54
CC(=O)Nc1ccc(NS(C)(=O)=O)cc1 | -2.2
CC1CCc2c(sc(NC(=O)c3cnccn3)c2C(N)=O)C1 (stereo not drawn) | 0.621
CCc1cccc(OCCCN2CCCCC2)c1 | 3.47
CCN1CCN(CCC(=O)Nc2ccccc2C)CC1 | -0.229
COc1cc(OC)cc(C(=O)Nc2ccc(C(=O)NCC3CCCO3)cc2)c1 (stereo not drawn) | 1.91
CCC(C)c1ccccc1OCCCN1CCOCC1 (stereo not drawn) | 1.6

Reprinted at random: 2 compounds from above, in no set order.
Compound | biofilm OD600 B-score
CC1CCc2c(sc(NC(=O)c3cnccn3)c2C(N)=O)C1 (stereo not drawn) | 0.621
CC(=O)Nc1ccccc1-c1ccccc1NC(C)=O | -1.46
